Data taken from patent US8673908B2, “Kynurenine production inhibitor” (Kyowa Hakko Kirin Co., Ltd., priority 2008, dated 2014).
Some of these results come from one statement about several compounds together. At least one compound was matched to its structure with a doubt left.

Test system: kynurenine production in IFN-γ-treated KATO-III cells
Experiment: Inhibitory activity on kynurenine production (Test Example 1)
Type: cell-based, human
Conditions: IFN-γ treatment, culture for 96 hours, read-out: IC50 value, inhibition of kynurenine production
Protocol: This assay was performed according to a method modified from the method described in the Journal of Biological Chemistry (J. Biol. Chem.), vol. 263, pp. 2041-2048 (1988). Culture of KATO-III derived from human gastric cancer cells was performed by use of RPMI 1640 (GIBCO, 11875) supplemented with 10 vol % FBS (GIBCO, 10091-148, lot. 665285). 1 μL of a DMSO solution of the test substance was diluted with 199 μL of the culture medium, and the diluted solution was added to wells of a 384 well plate (10 μL/well). Then, IFN-γ (Sigma, 1-3265) was added to the culture medium so that the concentration of IFN-γ was 31.25 ng/mL, and the KATO-III cells were suspended at 50,000 cells/ml, in the culture medium. 40 μL of the suspension was added to each well (2,000 cells/well), and culture of the KATO-III cells was performed at 37° C. under a 5% CO2 atmosphere for 96 hours. The final concentration of DMSO was limited to 0.1 vol % or less so that DMSO itself might not affect the kynurenine concentration measured by this assay. After the culture, 10 μL of a 30 w/v % aqueous trichloroacetic acid solution was added to each well, and incubation was performed at 65° C. for 30 minutes. The plate was centrifuged at 2,500×g for 5 minutes, and then 15 μL of the supernatant in each well was transferred into another 384 well plate. To each of the transferred supernatants, 15 μL of a 2 w/v % solution of p-dimethylaminobenzaldehyde in acetic acid was added, incubation was performed at 65° C. for 20 minutes, and then the absorbance at 480 nm was measured.
[formula] Sample: the absorbance value of the well to which a DMSO solution containing the test substance was added and in which cells were treated with IFN-γ. Blank: the absorbance value of the well to which only DMSO, not the test substance was added and in which cells were treated with IFN-γ. Control: the absorbance value of the well to which only DMSO, not the test substance was added and in which cells were not treated with IFN-γ.
In this assay, expression of IDO in KATO-III cells is induced by IFN-γ treatment and then kynurenine in the culture medium is quantified. It is known that the kynurenine concentration in a culture medium increases in proportion to the enzymatic activity of intracellular IDO (for example, the Journal of Biological Chemistry (J. Biol. Chem.), vol. 263, pp. 2041-2048 (1988)). […] It is known that kynurenine production is inhibited by IDO inhibitors (for example, the Journal of Clinical Investigation (J. Clin. Invest.), vol. 117, No. 5, pp. 1147-1154 […]), and thus it is expected that Compound (I) also has an inhibitory effect on IDO.

SMILES	IC50 [nM]
COc1cc(C(Oc2nc3ccccc3nc2NS(=O)(=O)c2ccccc2Cl)C(F)(F)F)c[n+]([O-])c1 (centres unmarked) [Compound 72, 3-{1-[3-(2 chlorobenzenesulfonamide)quinoxalin-2-yloxy]-2,2,2-trifluoroethyl}-5-methoxypyridine 1-oxide]	< 1000
Cc1noc(C)c1S(=O)(=O)Nc1nc2ccccc2nc1OC(c1ccc(CN(C)C)cc1)C(F)(F)F (centres unmarked) [Compound 205, N-{3-[1-(4-((dimethylamino)methyl)phenyl)-2,2,2-trifluoroethoxy]quinoxalin-2-yl}-3,5-dimethylisoxazole-4-sulfonamide]	< 1000
CCCNS(=O)(=O)Nc1nc2ccccc2nc1OC(c1ccc(C#N)cc1)C(F)(F)F (centres unmarked) [Compound 294, N-{3-[1-(4-cyanophenyl)-2,2,2-trifluoroethoxy]quinoxalin-2-yl}-N′-propyl-sulfuric diamide]	< 1000
Cc1nn(C)c(Cl)c1S(=O)(=O)Nc1nc2ccccc2nc1OC(C1CCS(=O)(=O)CC1)C(F)(F)F (centres unmarked) [Compound 132, 5-chloro-1,3-dimethyl-N-{3-[2,2,2-trifluoro-1-(tetrahydro-2H-thiopyran-1,1-dioxide-4-yl)ethoxy]quinoxalin-2-yl}-1H-pyrazole-4-sulfonamide]	< 1000
Cc1noc(C)c1S(=O)(=O)Nc1nc2ccccc2nc1OC(C1CCS(=O)(=O)CC1)C(F)(F)F (centres unmarked) [Compound 133, 3,5-dimethyl-N-{3-[2,2,2-trifluoro-1-(tetrahydro-2H-thiopyran-1,1-dioxide-4-yl)ethoxy]quinoxalin-2-yl}-isoxazole-4-sulfonamide]	< 1000
O=S(=O)(Nc1nc2ccccc2nc1OC(c1ccc[n+]([O-])c1)C1CCOCC1)c1ccccc1Cl (centres unmarked) [Compound 74]	< 1000
Cc1ccc(C(Oc2nc3ccccc3nc2NS(=O)(=O)c2ccccc2Cl)C(F)(F)F)c[n+]1[O-] (centres unmarked) [Compound 65, 3-{1-[3-(2-chlorobenzenesulfonamide)quinoxalin-2-yloxy]-2,2,2-trifluoroethyl}-6-methylpyridine 1-oxide]	< 1000
O=S(=O)(Nc1nc2ccccc2nc1OC(F)(c1ccc[n+]([O-])c1)C1CCOCC1)c1ccccc1Cl (centres unmarked) [Compound 79, 3-{[3-(2-chlorobenzenesulfonamide)quinoxalin-2-yloxy]fluoro(tetrahydropyran-4-yl)}methylpyridine 1-oxide]	< 1000
